Test: Permeability of the compound in PBS/EtOH buffer (7:3) at 25 ug/ml after 18 hrs by PAMPA-BBB assay

COc1cc2c(cc1OC)C(=O)C(CC1CCN(Cc3ccccc3)CC1)C2 (stereo unspecified) [DONEPEZIL]
Papp at 18 h, 25 ug/ml: 7.6 ×10⁻⁶ cm/s
